# Where “and” joins values, the source holds several entries; their conditions need not be identical. Equal entries are not always repeated. The list shows a part of the results.
# Columns and labels:
# Assay in all cases: protein microarray (ProtoArray v5.0), streptavidin-Alexa Fluor 647
# Conditions in all cases: 3'-biotin; 20 mM Tris (pH 7.5), 5 mM MgCl2, 100 mM KCl, 0.1% Tween-20, A/T-rich and random oligonucleotide blockers; temperature not stated; high values mean tight binding
# [1] = system: Aldo-keto reductase family 1 member C2 (human)
# [2] = system: Alpha-1,3-mannosyl-glycoprotein 4-beta-N-acetylglucosaminyltransferase B (human)
# [3] = system: Alpha-1-acid glycoprotein 1 (human)
# [4] = system: Alpha-2-macroglobulin-like protein 1 (human)
# Alpha-S1-casein (human) = system: Alpha-S1-casein (human)
# Alpha-catulin (human) = system: Alpha-catulin (human)
# [5] = system: Amino-terminal enhancer of split (human)
# [6] = system: Anaphase-promoting complex subunit 11 (human)
# [7] = system: Angiopoietin-1 receptor (human)
# Annexin A4 (human) = system: Annexin A4 (human)
# [8] = system: Annexin-2 receptor (human)
# [9] = system: Apolipoprotein A-I-binding protein (human)
# [10] = system: Apolipoprotein A-IV (human)
# [11] = system: Apolipoprotein C-II (human)
# [12] = system: Apolipoprotein L2 (human)
# Arfaptin-1 (human) = system: Arfaptin-1 (human)
# [13] = system: Armadillo repeat-containing protein 6 (human)
# [14] = system: Aromatic-L-amino-acid decarboxylase (human)
# Asporin (human) = system: Asporin (human)
# Ataxin-3 (human) = system: Ataxin-3 (human)
sequence,measurement,setting,value
GGGAGGCTGAGGCAGG [G4-1 biotinylated (PQS2)],binding signal,[1],-0.338 z-score
same,binding signal,[2],-0.325 z-score
same,binding signal,[3],-0.333 z-score
same,binding signal,[4],-0.301 z-score
same,binding signal,Alpha-S1-casein (human),-0.335 z-score
same,binding signal,Alpha-catulin (human),-0.348 z-score
same,binding signal,[5],-0.373 z-score
same,binding signal,[6],-0.343 z-score
same,binding signal,[7],-0.238 z-score
same,binding signal,Annexin A4 (human),-0.333 z-score
same,binding signal,[8],-0.36 z-score and -0.349 z-score
same,binding signal,[9],-0.318 z-score
same,binding signal,[10],-0.371 z-score
same,binding signal,[11],-0.35 z-score
same,binding signal,[12],-0.353 z-score
same,binding signal,Arfaptin-1 (human),-0.361 z-score
same,binding signal,[13],-0.349 z-score
same,binding signal,[14],-0.354 z-score
same,binding signal,Asporin (human),-0.297 z-score
same,binding signal,Ataxin-3 (human),-0.344 z-score

# In a second layout: results already given
sequence | measurement | setting | value
GGGAGGCTGAGGCAGG [G4-1 biotinylated (PQS2)] | binding signal | [1] | -0.338 z-score
same | binding signal | [2] | -0.325 z-score

# Source: paper PMC5996148
